From PubChem BioAssay AID2810 (NMMLSC, 2010)
The list shows a part of the results. Further columns of the screen follow, without active or inactive calls.

Experiment: modulators of CD8 T cell-vesicle binding, confirmation, cherry-picked primary hits, two concentrations (AID 2810);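 also: lower values mean blocking of vesicle binding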;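 as to percent response (vesicle binding): ratio of mean FL2 vesicle stain of CD8+ cells to that row's control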
Conditions: 2C CD8+ T cell-vesicle binding, flow cytometry; for double positive events: CD8+/vesicle+ events
[1] = at 15.4 µM, stronger effect = lower value

SMILES | double positive events (at 7.7 µM) [%] | double positive events [1] [%] | percent response (vesicle binding) (at 7.7 µM) [%]
O=C(On1c(-c2ccccc2)nc2ccccc2c1=O)c1ccco1 | 38.7 | 8 | 304
Cc1cnc(C(=O)Nc2ccc(C)c(S(=O)(=O)N3CCCCC3)c2)cn1 | 19.5 | 9.6 | 86.9
O=C(c1ccccc1)N1CCN(Cc2c[nH]c3ccccc23)CC1 | 17.4 | 14.2 | 598
O/N=C1\CCCc2oc3c(c21)CCCC3 | 24.6 | 7.6 | 365
COc1ccc(C(=O)NCc2c(C)nn(Cc3ccccc3)c2C)cc1S(=O)(=O)N1CCOCC1 | 22.1 | 29.3 | 626
O=S(=O)(c1ccc(Cl)s1)N1CCC2(CC1)OCCO2 | 14.6 | 9.6 | 85
CCOC(=O)CC(NC(=O)c1cc2cccc(OC)c2oc1=O)c1cccc([N+](=O)[O-])c1 (stereo not drawn) | 17.9 | 17.2 | 111
O=C(COC(=O)c1ccc(Br)o1)NCc1ccc(Cl)cc1 | 12.2 | 9.2 | 378
COc1ccc(O)c(C2=Nc3ccccc3N=C(c3cccs3)C2)c1 | 28.5 | 7.2 | 186
CC(C)(C)c1ccc(OCC(=O)NCc2ccco2)c(Br)c1 | 13.7 | 17.8 | 196
Cc1ccc(N2C(=O)C(Cl)=C(N3CCCCCC3)C2=O)c(C)c1 | 19.6 | 11.4 | 254
COCCNc1nc(C)c(C(C)=O)s1 | 16.3 | 39.4 | 209
COc1ccc(-c2cnnc(N/N=C/C(C)=C/c3ccccc3)n2)cc1 | 18.5 | 13.9 | 314
CCCCCCC#Cc1ccc2c(c1)COc1c3ccccc3nn1-2 | 30.9 | 24.4 | 404
CCOc1ccc2nnnn2n1 | 28.2 | 21.2 | 426
Cc1ccc(Nc2cc(C)c(O)c(C)c2)cc1 | 9.9 | 26.7 | 120
CN(C)CC(NC(=O)c1cccc(S(=O)(=O)Nc2ccc3c(c2)OCO3)c1)c1ccccc1 (stereo not drawn) | 13.2 | 32.1 | 124
O=c1c2c(O)cc(O)cc2oc2ccc(O)c(O[C@@H]3O[C@H](CO)[C@@H](O)[C@H](O)[C@H]3O[C@H]3O[C@H](CO)[C@@H](O)[C@H](O)[C@H]3O)c12 | 13.6 | 34.6 | 144
CC(C)N(CCNC(=O)c1nn(Cc2ccccc2)c(=O)c2ccccc12)C(C)C | 28.5 | 20.6 | 266
C[C@H](CO)N1C[C@H](C)[C@@H](CN(C)Cc2ccncc2)Oc2c(NC(=O)CCCCCC(=O)Nc3ccccc3N)cccc2C1=O | 12.5 | 23.6 | 190
COc1ccc(CCc2nc(-c3ccc(-n4cccc4)cc3)no2)cc1 | 19.9 | 32.2 | 762

One compound at a time, as listed above. Order of values: double positive events (at 7.7 µM) [%]	double positive events [1] [%]	percent response (vesicle binding) (at 7.7 µM) [%]
O=C(c1ccccc1)N1CCN(Cc2c[nH]c3ccccc23)CC1 as listed: 17.4	14.2	598
CCCCCCC#Cc1ccc2c(c1)COc1c3ccccc3nn1-2 as listed: 30.9	24.4	404
CCOC(=O)CC(NC(=O)c1cc2cccc(OC)c2oc1=O)c1cccc([N+](=O)[O-])c1 (stereo not drawn) as listed: 17.9	17.2	111
Cc1ccc(Nc2cc(C)c(O)c(C)c2)cc1 as listed: 9.9	26.7	120

Later entries.

SMILES | double positive events (at 7.7 µM) [%] | double positive events [1] [%] | percent response (vesicle binding) (at 7.7 µM) [%]
Cc1ccc(C(C)C)c(OCC(=O)N2CCN(c3ncccn3)CC2)c1 | 9.8 | 26.6 | 314
CC(Oc1ccccc1Cl)C(=O)N1CCCN(C)CC1 (stereo not drawn) | 18.8 | 23.4 | 470
CC(=O)Nc1ccc(NC(=O)C(C)OC(=O)[C@@H]2CCCN2C(=O)c2cccs2)cc1 (stereo partly drawn) | 10.5 | 23.1 | 141
CCOC(=O)c1ccc(NC(=O)CN2C(=O)NC3(CCCCCCC3)C2=O)cc1 | 18.9 | 5.3 | 185
C=CC[C@@H](CC(=O)NCCO)C(=O)N[C@@H](COC(=O)[C@@H](CC=C)Cc1ccc(F)cc1)Cc1ccccc1 | 38.5 | 33.5 | 228
Cc1ccc(C)c(S(=O)(=O)N2CCCC2CNC(=O)C(=O)NCCc2ccco2)c1 (stereo not drawn) | 9.6 | 5.9 | 406
O=C(Cc1ccc2c(c1)OCCO2)Nc1cccc(S(=O)(=O)N2CCOCC2)c1 | 13.8 | 28.5 | 427
CC(=O)c1csc(-c2cccc(-c3nc4ccc(Cl)cn4c3NC3CCCCC3)c2)c1 | 29.6 | 13.2 | 498
Cc1nc2c(cc1C(=O)N/N=C/c1ccc(O)c(O)c1)c(=O)n(C)c(=O)n2C | 43.3 | 17.8 | 254
C(=N\N=C\c1cccnc1)/c1cccnc1 | 23.8 | 6.4 | 185
NC(=O)CSc1nnc2sc3ccccc3n12 | 13.5 | 17.2 | 174
COc1cccc(/C=C2\SC(=O)N(CCC(=O)NNC(=O)c3ccccc3Cl)C2=O)c1 | 17 | 27 | 164
COC(=O)CN(n1cnnc1)S(=O)(=O)c1ccccc1Cl | 32.1 | 9.6 | 359
CSc1cccc(NC(=O)CCCn2c(=O)c3cccn3c3cccnc32)c1 | 26.3 | 3 | 210
COc1ccc(CC(=O)OCC(=O)N2CCN(S(=O)(=O)c3ccc(C)cc3C)CC2)cc1 | 6.8 | 6.3 | 92
Cc1cs/c(=N\N=C\c2cccc([N+](=O)[O-])c2)n1Cc1ccco1 | 7.5 | 24.4 | 232
CCCCOc1ccc(CC(=O)NCC(=O)O)cc1 | 12.7 | 14.2 | 385
Cc1nc2ccccc2cc1C(=O)N/N=C/c1cccs1 | 23.9 | 7.9 | 181
CCN(C(=S)Nc1ccccc1F)C1CCCCC1 | 37.6 | 29.9 | 217
CCn1c(Cc2ccc(OC)cc2)nnc1SCC(=O)NC1CC1 | 26.7 | 12 | 216
CC(OC(=O)c1ccc(-n2cnnn2)cc1)C(=O)Nc1ccccc1F (stereo not drawn) | 11.2 | 16.8 | 409

SMILES | double positive events (at 7.7 µM) [%] | double positive events [1] [%] | percent response (vesicle binding) (at 7.7 µM) [%]
Nn1c(Cc2ccccc2F)nnc1SCC(=O)Nc1cccc(S(=O)(=O)NC2=NCCCCC2)c1 | 16.1 | 13.7 | 154
Cc1cccc(C)c1NC(=O)CNC(=O)C(C)NC(C)c1ccccc1Br (stereo not drawn) | 30.2 | 15.3 | 306
COc1ccc(NC(=O)[C@@H](NC(=O)c2ccccc2F)C(C)C)cc1S(=O)(=O)N1CCOCC1 | 6.1 | 13.1 | 219
CCOc1ccc2nnc(-c3ccc(Br)cc3)n2n1 | 19.8 | 10.7 | 583
C=CCNC(=O)c1ccc(-c2ccc([N+](=O)[O-])cc2)o1 | 12.1 | 18 | 431
COc1ccc(C(=S)NCS(=O)(=O)c2ccc(C)cc2)cc1 | 32.6 | 27.7 | 519
Cc1[nH]c2ccccc2c1C(=O)CN1C(=O)C(=O)N(CCC2=CCCCC2)C1=O | 13.9 | 28 | 387
O=C1CN(C(=O)c2ccc(F)cc2)c2ccccc2N1 | 16.8 | 25.6 | 222
CC(NCc1ccccc1Cl)C(=O)Nc1ccc(S(=O)(=O)N2CCCC2)cc1 (stereo not drawn) | 28.7 | 20.6 | 186
CCNC(=S)Nc1ccc(Cl)cc1Cl | 22.7 | 16.3 | 349
C/C(=N/NC(=O)c1cccc(C)c1)c1c(O)cc(C)oc1=O | 32.1 | 11.8 | 365
CCCCC(CC(O)COCCC)C(=O)NN (stereo not drawn) | 31.4 | 6.8 | 127
C/C=C(/C)C(=O)O[C@@H]1[C@H](OC(C)=O)c2c(ccc3ccc(=O)oc23)OC1(C)C | 23.2 | 13.6 | 234
CCOc1ccc(C(=O)NNC(=O)CN2C(=O)C3CC=CCC3C2=O)cc1OC (stereo not drawn) | 24.7 | 32.8 | 243
CCOc1ccc(NC(=O)CN(C)C(=O)C2CC(=O)N(Cc3ccco3)C2)cc1OCC (stereo not drawn) | 9 | 22.3 | 342
O=C(CCN1CCOCC1)c1ccc(N2CCCCC2)cc1 | 30.8 | 13.8 | 233
COc1ccc(/C=N\NC(=O)c2ccccc2OC)cc1COc1c(F)c(F)c(F)c(F)c1F | 18.6 | 42.2 | 239
O=C(Cc1cccs1)NNC(=O)c1ccc(F)cc1 | 18.8 | 23.6 | 206
COc1cc(C)c(NC(=O)COc2cccc3c2OC(C)(C)C3)cc1OC | 47 | 19.2 | 278
Nc1ccc(-c2nnc(-c3ccccc3)o2)cc1 | 14.9 | 32 | 112
COc1cccc(OC)c1C(=O)Nc1cccc(C(C)=O)c1 | 37.1 | 12.7 | 327

SMILES | double positive events (at 7.7 µM) [%] | double positive events [1] [%] | percent response (vesicle binding) (at 7.7 µM) [%]
COC1CCN(Cc2cn(Cc3ccccc3)nc2-c2cc3ccccc3o2)CC1 | 9.5 | 18.9 | 144
CCC[C@@H]1Cc2ccccc2N1C(C)=O | 27.5 | 5 | 271
CC1CCCN(S(=O)(=O)c2ccc(C(=O)Nc3ccccc3-c3nc4ccccc4[nH]3)cc2)C1 (stereo not drawn) | 11.7 | 11.5 | 202
CN1C(=S)SC(/[N+]([O-])=C\c2ccccc2F)C1(C)C (stereo not drawn) | 22 | 26.9 | 620
CN(C1=C(NC(=O)c2ccc(Cl)cc2)C(=O)c2ccccc2C1=O)c1ccccc1 | 15.4 | 28.8 | 682
c1ccc(Oc2cccc(CN3CCCCC3)c2)cc1 | 25.4 | 26.1 | 485
O=C(CN1C(=O)c2ccc([N+](=O)[O-])cc2C1=O)Nc1nnc(C2CC2)s1 | 37.1 | 12.6 | 756
COC(=O)c1ccc(/C=N/Nc2nc(C)c(C)s2)cc1 | 12.6 | 30.9 | 147
O=C(c1ccc(COc2c(F)c(F)cc(F)c2F)o1)N1CCN(c2ccccc2)CC1 | 16.7 | 23.8 | 234
CCNc1nc(NCC)nc(N(n2cnnc2)S(=O)(=O)c2ccc(C)cc2)n1 | 14.5 | 19.9 | 178
COc1ccc(-n2nc([N+](=O)[O-])c(=NCc3cccnc3)n2O)cc1 | 18.9 | 19.6 | 170
CCOc1ccc(C(=O)Nc2nnc(C3=COCCO3)o2)cc1 | 13.3 | 17.3 | 504
Cc1ccccc1C(C(=O)NC1CCCCC1)N(C(=O)c1ccccn1)c1cccnc1 (stereo not drawn) | 9.1 | 30.8 | 87.5
CON(C)C(=O)/C=C/CCCCNC(=O)OC(C)(C)C | 25 | 18.7 | 188
Cc1c(C(=O)NCCN2C(=O)S/C(=C\c3cccnc3)C2=O)cccc1[N+](=O)[O-] | 18.3 | 20.5 | 735
COCCn1nnnc1C(c1cc2ccc(OC)cc2[nH]c1=O)N1CCc2ccccc2C1 (stereo not drawn) | 33.1 | 19.3 | 359
O=C(NNC(=O)c1ccc(Cl)nc1)c1ccc(Br)cc1 | 38.1 | 29.1 | 306
Cc1cc(S(=O)(=O)N2CCN(Cc3ccccc3)CC2)c(C)s1 | 18.4 | 28.3 | 258
